Series [1] concerns Triticum aestivum seeds. Put plainly: Percentage of aleurone and pericarp (microscope fields), wheat. To be noted: steeped 1 hour, mean of 390 microscope fields.
Series [2] concerns Triticum durum seeds. The series can be described thus: Seed color values (Yxy, Minolta C100 Chroma Meter), durum wheat. As to conditions: steeped 1 hour, NaOH 0.25%; for Color values Lightness (Y): means of four replications.
The test system of series [3] is red wheat (Vance Wheat) seeds. The series can be described thus: Seed color values on red wheat, varying concentration and time.

Take `OCl` [Hypochlorite 0.8%, hypochlorite]: in series [1] (listed as H 0.8%), the “Aleurone (%)” value is 9.49% and the “Pericarp (%)” value is listed as 4.06%. In series [2] (listed as H 0.8%), the “Color values Redness (x)” value worked out at 0.3462 and the “Color values Lightness (Y)” value was 71.0025. In series [3] (0.5 h), the “Color values Lightness” value amounted to 70.5025 and the “Color values Redness” value was found to be 0.3347. In series [3] (1 h), the “Color values Lightness” value was 73.0425 and the “Color values Redness” value is reported as 0.3335. In series [3] (2 h), the “Color values Lightness” value was 73.68 and the “Color values Redness” value is recorded as 0.3318.
On to `OCl` [Hypochlorite 1.6%, hypochlorite], for which, in series [1] (listed as H 1.6%), the “Aleurone (%)” value was found to be 8.95% and the “Pericarp (%)” value amounted to 4.66%. For the same molecule, in series [2] (listed as H 1.6%), the “Color values Redness (x)” value is 0.3445 and the “Color values Lightness (Y)” value is 70.6825. In series [3] (0.5 h), the “Color values Lightness” value was determined as 71.8475 and the “Color values Redness” value was determined as 0.3327. Besides, in series [3] (1 h), the “Color values Lightness” value worked out at 74.1725 and the “Color values Redness” value was determined as 0.3321. Moreover, in series [3] (2 h), the “Color values Lightness” value was 75.675 and the “Color values Redness” value amounted to 0.3314.
In the case of `OCl` [Hypochlorite 3.3%, hypochlorite], the “Color values Lightness” value came to 72.7825 in series [3] (0.5 h), 75.8925 in series [3] (1 h) and 76.85 in series [3] (2 h). Also, the “Color values Redness” value in series [3] (0.5 h) is on record as 0.3332; in series [3] (1 h), 0.3316; in series [3] (2 h), 0.3311.
In the case of `[Na+].[OH-]` [NaOH 0.25%, sodium hydroxide], the “Color values Lightness” value in series [3] (0.5 h) came to 63.6275; in series [3] (1 h), 65.26; in series [3] (2 h), 64.1125. The “Color values Redness” value in series [3] (0.5 h) was found to be 0.3362; in series [3] (1 h), 0.3371; in series [3] (2 h), 0.3378.
`OCl` [hypochlorite]: the “Color values Lightness (Y)” value in series [2] (listed as hypochlorite solutions) amounted to 71.0. Besides, in series [3] (2 h), the “Color values Lightness” value is 76.8 and the “Color values Redness” value is reported as 0.3311.

(Values after US20030180385A1 (priority 2002, published 2003).)
